These are yes or no findings as the source states them, for the method shown. In cells and extracts the contact can be indirect. Some results given as binding are weak or reduced against the parent protein; the word gives no strength.

The chains behind the UniProt entries cited, without tags or fusion partners. Where a name states a change or a piece, a line headed by the entry shows the natural chain unless it says otherwise.
UniProt P84091: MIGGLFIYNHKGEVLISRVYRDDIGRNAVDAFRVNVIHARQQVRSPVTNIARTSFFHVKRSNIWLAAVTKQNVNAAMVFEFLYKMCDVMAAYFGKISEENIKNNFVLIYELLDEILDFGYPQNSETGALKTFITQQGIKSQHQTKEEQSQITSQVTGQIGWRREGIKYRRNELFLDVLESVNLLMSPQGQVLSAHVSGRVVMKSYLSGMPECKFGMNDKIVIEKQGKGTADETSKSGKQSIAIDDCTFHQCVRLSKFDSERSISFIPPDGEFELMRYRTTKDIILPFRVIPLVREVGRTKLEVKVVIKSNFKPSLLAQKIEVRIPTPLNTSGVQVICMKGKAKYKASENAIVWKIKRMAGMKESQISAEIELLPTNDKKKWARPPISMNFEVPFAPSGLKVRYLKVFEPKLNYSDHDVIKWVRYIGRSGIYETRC
UniProt P11911: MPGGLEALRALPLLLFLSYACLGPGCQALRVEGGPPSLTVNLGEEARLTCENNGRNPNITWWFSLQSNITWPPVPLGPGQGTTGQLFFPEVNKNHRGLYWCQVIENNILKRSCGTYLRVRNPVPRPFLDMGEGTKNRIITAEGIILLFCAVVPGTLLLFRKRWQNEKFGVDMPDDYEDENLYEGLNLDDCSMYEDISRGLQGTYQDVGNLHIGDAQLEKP
UniProt P15530: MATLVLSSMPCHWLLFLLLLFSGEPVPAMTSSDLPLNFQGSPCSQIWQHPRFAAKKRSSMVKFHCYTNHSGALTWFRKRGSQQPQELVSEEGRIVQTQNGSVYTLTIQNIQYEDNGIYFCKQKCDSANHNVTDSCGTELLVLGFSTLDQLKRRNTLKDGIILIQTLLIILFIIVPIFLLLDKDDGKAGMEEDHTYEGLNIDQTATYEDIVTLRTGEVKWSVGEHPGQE

The test deals with biotin-labeled AP2µ (murine) (UniProt P84091). Nature of the test: pull-down; competitive inhibition: synthetic peptide (250 µM final) mixed with in vitro translated AP2µ-btn for 30 minutes, then added to glutathione-immobilised GST–[SDYQRL]3 for 30 minutes; percent inhibition taken as read-out of peptide binding to AP2µ-btn; only the binder purified.
As to GTYQDVGTYQDVGTYQDV (peptide, UniProt P11911 202-207; P11911 202-207; P11911 202-207) [18-mer peptide [xxYxxØ]3 of the CD79a YxxØ motif centered on Y204], the binding entry is listed as “binds”.

Regarding NLYEGLNLYEGLNLYEGL (peptide, UniProt P11911 180-185; P11911 180-185; P11911 180-185) [18-mer peptide [xxYxxØ]3 of the membrane proximal YxxØ motif of CD79a (Y182)], the binding result is reported as “no binding (tested: 250 µM)”.

Turning to SMYEDISMYEDISMYEDI (peptide, UniProt P11911 191-196; P11911 191-196; P11911 191-196) [18-mer peptide [xxYxxØ]3 of the CD79a YxxØ motif centered on Y193], the binding entry is recorded as “binds”.

On to ATYEDIATYEDIATYEDI (peptide, UniProt P15530 204-209; P15530 204-209; P15530 204-209) [18-mer peptide [xxYxxØ]3 of the single downstream YxxØ motif of CD79b (Y206)], for which the binding entry is listed as “no binding (tested: 250 µM)”.

The values are drawn from publication PMC3553015 (2013).
